Results on one sequence are retold here after US20240200081A1, “NUCLEIC ACID MOLECULE CONJUGATE HAVING PROLONGED IN VIVO HALF-LIFE” (APTACURE THERAPEUTICS LIMITED, published 2024).

The comparison behind a weaker result is the experiment's own reference, which may not be listed here. Tags and fusion partners may be left off the protein sequences shown.

For the data set, the target named is T1, sclerostin (Homo sapiens) (UniProt Q9BQB4).
T1 sequence (limits assumed): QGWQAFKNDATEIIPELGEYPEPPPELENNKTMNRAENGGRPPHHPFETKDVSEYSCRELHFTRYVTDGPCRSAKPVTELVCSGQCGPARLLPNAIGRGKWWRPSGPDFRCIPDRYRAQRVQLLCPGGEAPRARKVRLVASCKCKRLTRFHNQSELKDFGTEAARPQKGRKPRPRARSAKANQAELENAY
Briefly: ELONA. The following applies: low binding, curve could not be fitted, purified recombinant protein, protein details: His6 (SELEX protein), label: biotin (ELONA), single-stranded DNA, variant of aptscl 3.

Take TGTTGTACATCGCCTTACGCACGTG [aptscl 3-6]: the binding result is on record as “binds more weakly”.
